Measured values from PubChem BioAssay AID651803 (National Center for Advancing Translational Sciences (NCATS), 2012).
Fewer than 10 of roughly 1,200 compounds were called active. Calls follow the shape of the dose curve; as a rule, active = well fitted curve in the direction sought with a large enough effect; inconclusive = small, poorly fitted or top-dose-only effect, or another doubt; inactive = no such curve, though single readings can be large or run the other way. The list shows a part of the results.

Chains of the proteins cited; added tags and fusions are not shown. Lines headed by an entry give the natural chain unless they say otherwise; changes in a name come on top.
UniProt P11308: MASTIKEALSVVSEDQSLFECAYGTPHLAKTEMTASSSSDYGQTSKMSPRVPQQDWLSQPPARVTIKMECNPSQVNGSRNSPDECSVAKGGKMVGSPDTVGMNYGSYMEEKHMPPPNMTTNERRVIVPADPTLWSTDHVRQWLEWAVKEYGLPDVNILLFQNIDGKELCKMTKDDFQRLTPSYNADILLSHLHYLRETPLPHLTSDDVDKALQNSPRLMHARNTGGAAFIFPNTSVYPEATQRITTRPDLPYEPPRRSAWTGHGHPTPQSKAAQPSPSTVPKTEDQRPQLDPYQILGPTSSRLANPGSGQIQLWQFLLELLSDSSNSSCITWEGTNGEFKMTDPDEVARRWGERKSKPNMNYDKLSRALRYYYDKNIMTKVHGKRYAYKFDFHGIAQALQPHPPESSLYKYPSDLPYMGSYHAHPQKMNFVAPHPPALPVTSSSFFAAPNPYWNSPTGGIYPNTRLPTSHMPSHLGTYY

What follows are compounds tested against Transcriptional regulator ERG (Homo sapiens) (UniProt P11308) (assay: qHTS for Small Molecule Inhibitors of the ERG Ets/DNA interaction: TR assay against cherry picks). Details: ERG Ets domain-DNA fluorescence polarization, Texas red probe; at 154 µM (top of the series).
How it was run: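 Polarization read sequentially for fluorescein (ex 480/em 535 nm) and Texas red (ex 555/em 632 nm) probes, 5 nM and 100 nM solutions, displaced from His-ERG Ets domain (1 uM solution), pH 7.5 Tris/KCl/EDTA/DTT buffer.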
Also: % of control where 0% means no effect.

Activity change, negative = inhibition, inactive:
Cc1ccc(S(=O)(=O)N2CCCCC2)cc1NC(=O)C1CC(=O)N(c2ccc3c(c2)OCCO3)C1 (centres undefined) 6.08%, CCOc1cc(C2c3c(oc4ccccc4c3=O)C(=O)N2Cc2ccc(OC)cc2)ccc1O (centres undefined) -8.68%, O=[N+]([O-])c1cnc(N2CCCCC2)c([N+](=O)[O-])c1 11.5%, COc1ccc(C(C)(C)C)cc1NC(=O)C1=CC=CN2CCS(=O)(=O)N=C12 1.14%, O=C(Nc1ccc(N2CCN(C(=O)c3cccs3)CC2)cc1)c1ccccc1Cl -10%, COc1cc(NCCCC(C)N)c2ncccc2c1 (centres undefined) 58.2%, CC1(C)OC(C)(C)/C(=C/Nc2ccc(O)cc2)C1=O 2.72%, CC1=CC(C)(C)N2C(=O)C(=Nc3ccc(O)cc3)c3cccc1c32 -7.78%, CCC1COC(c2cccn2Cc2ccc(Cl)cc2)=N1 (centres undefined) 0.438%, O=S(=O)(NCCC1=CCCCC1)c1ccc(OC(F)(F)F)cc1 -22.2%, CCOC(=O)c1c(NC(=O)C(C)Sc2cn(CCNC(=O)c3ccc(OC)c(OC)c3)c3ccccc23)sc2c1CCC2 (centres undefined) -9.91%, Cc1cccn2c(=O)c3cc(C#N)c(=NC(=O)c4ccccc4)n(Cc4ccco4)c3nc12 2.24%, O=C(Nc1ccc(-c2nc3ccccc3[nH]2)cc1)c1c(F)c(F)c(F)c(F)c1F 6.61%, COc1ccc(NC(=O)C(C)(C)Oc2ccc(Cl)cc2)cn1 -10.7%, COc1ccc(CCNc2oc(-c3cccc4ccccc34)nc2P(=O)(OC)OC)cc1OC -5.96%, CCC(=O)N1CCN(c2nc3ccc(Br)cc3s2)CC1 2.3%, O=C(CN1C(=O)COc2ccc(S(=O)(=O)N3CCCCCC3)cc21)N1CCN(c2ccccc2F)CC1 -18.9%, C#C[C@]1(O)CCC2C3CCC4=CC(=O)CC[C@@H]4C3CC[C@@]21C (some centres undefined) 1.42%, COc1cc(/C=N/NC(=O)C(=O)NCc2ccco2)cc(Br)c1O 2.43%, C=CCOc1ccc(/C=N/NC(C)=O)cc1OCC -3.61%, O=C(NC1CCCC1)C1CCC(CNS(=O)(=O)c2cccs2)CC1 (centres undefined) 2.82%, C/C(=N/OCO/N=C(\C)c1ccccc1)c1ccccc1 -14%, O=C(Nc1cc2c(cc1Cl)-c1ccc([N+](=O)[O-])cc1C2=NO)C(F)(F)F -27.9%, O=C(OCC(=O)c1ccc(Cl)cc1Cl)c1cnccn1 0.718%, O=C(Nc1ccc(C(=O)O)cc1)/C(=C\c1cccc([N+](=O)[O-])c1)NC(=O)c1ccc(Br)o1 -9.45%, CCc1cc(C(=O)NNC(=S)Nc2cccc(C)c2)cs1 3.53%, COc1ccccc1NC(=O)N1CCN(C(=O)Nc2ccccc2OC)CC1 -19.1%, CC(=O)Nc1ccc(/C(C)=N/NC(=O)c2ccccc2Cl)cc1 2.9%, Cc1c(OCC(=O)NCC2CCC(C(=O)NCCCO)CC2)ccc2c(-c3ccccc3)cc(=O)oc12 (centres undefined) 7.74%, OC(c1cc(C(F)(F)F)nc2c(Cl)cc(Cl)cc12)C1CCCCN1 (centres undefined) -17.6%, CCc1ccc(S(=O)(=O)NC2CC(C)(C)NC(C)(C)C2)cc1 -5.64%, COC(=O)Cn1c(=NC(=O)CN2C(=O)CCC2=O)sc2cc(S(N)(=O)=O)ccc21 3.73%, COc1cc(/C=N/NC(=O)CC2(C)OCCO2)cc(Br)c1O -0.591%, COCC1CCN(Cc2nc(-c3ccc4c(c3)OCO4)no2)C1 (centres undefined) 14.2%, Cc1ccc2c(c1)N(CCC(=O)NCCCN1CCCC1)C(=O)CO2 -7.25%, CC1CC(=O)N(CC(=O)Nc2cccc(Cl)c2)c2ccccc2S1(=O)=O (centres undefined) -6.57%, C=C(C)[C@@H]1CC=C(C(=O)O)CC1 -15.8%, Cc1ccc(Cl)cc1NC(=O)c1oc2ccc(S(=O)(=O)N(C)C3CCCCC3)cc2c1C -6.65%, Cc1ccc(OCC(=O)OCC(=O)c2ccccc2)cc1C 4.59%, O=C(Nc1ccncc1)c1cn(-c2ccccc2)nc1-c1cccs1 -21%, COc1ccc(NC(=O)CSc2nc(C)c3c(c2C#N)CCCC3)cc1 4.28%, CCCC(c1nnnn1CS(=O)(=O)c1ccc(C)cc1)N1CCN(CC)CC1 (centres undefined) -14.2%, CCOC(=O)C(c1ccccc1)C(Nc1ccc(F)cc1)c1ccccn1 (centres undefined) -19.2%, Cc1ccc(NC(=O)/C(C#N)=C/c2ccc(C)s2)c(C)c1 90%
